Data on one substance can be found in article PMC5450231.

Chains of the proteins cited; added tags and fusions are not shown. Lines headed by an entry give the natural chain unless they say otherwise; changes in a name come on top. Residues count along the entry.
UniProt Q10589, residues 1-161: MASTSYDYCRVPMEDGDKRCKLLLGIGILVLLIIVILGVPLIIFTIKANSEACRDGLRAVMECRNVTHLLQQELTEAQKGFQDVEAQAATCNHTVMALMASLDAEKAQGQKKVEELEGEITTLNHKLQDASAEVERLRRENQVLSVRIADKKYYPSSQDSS

The experiment concerns the target BST2 (as used with endogenous NEDD4, Fig. S1C,D) (UniProt Q10589). Description: co-IP; endogenous NEDD4 with BST2 (Fig. S1C,D); cells and direction not given.

No constants are given. Whether binding was seen depends on the method and setting. Binding seen in cells or lysates may run through a third protein. Binding calls can cover weak binding; strength is not graded here.

On to “endogenous NEDD4 (from UniProt P46934-4) (enzyme)”, for which the binding entry was “binds”.
